We go through two substances from publication PMC12084551.

Results are given in words; binding and its absence hold for the method and conditions named.

The target of test [1] is GAS2-GARΔC (residues 198–276) (mouse) (UniProt P11862). The test is described as follows: SEC; Superdex 75 HR 10/300; 30 mM Tris-HCl pH 8.0, 300 mM KCl, 100 μM ZnCl2, 0.1% β-ME; molecular weight from a calibration with BSA, carbonic anhydrase and cytochrome c; both purified.
The target in test [2] is GAS2ΔC (residues 1–276) (mouse) (UniProt P11862). Described as above.

For “GAS2-GARΔC (residues 198–276) (from UniProt P11862 198-276) (domain or fragment)”, the binding result in test [1] is given as “no binding”.

Turning to “GAS2ΔC (residues 1–276) (from UniProt P11862 1-276) (domain or fragment)”, in test [2], the binding entry was “no binding”.
